Laboratory results reported in publication PMC8062039.
Results are given in words; binding and its absence hold for the method and conditions named. Binding seen in cells or lysates may run through a third protein. Tags and fused reporters may be left off the sequences shown.

Biological target: T1, FLAG tagged TBC1D24 (UniProt Q9ULP9)
T1 sequence: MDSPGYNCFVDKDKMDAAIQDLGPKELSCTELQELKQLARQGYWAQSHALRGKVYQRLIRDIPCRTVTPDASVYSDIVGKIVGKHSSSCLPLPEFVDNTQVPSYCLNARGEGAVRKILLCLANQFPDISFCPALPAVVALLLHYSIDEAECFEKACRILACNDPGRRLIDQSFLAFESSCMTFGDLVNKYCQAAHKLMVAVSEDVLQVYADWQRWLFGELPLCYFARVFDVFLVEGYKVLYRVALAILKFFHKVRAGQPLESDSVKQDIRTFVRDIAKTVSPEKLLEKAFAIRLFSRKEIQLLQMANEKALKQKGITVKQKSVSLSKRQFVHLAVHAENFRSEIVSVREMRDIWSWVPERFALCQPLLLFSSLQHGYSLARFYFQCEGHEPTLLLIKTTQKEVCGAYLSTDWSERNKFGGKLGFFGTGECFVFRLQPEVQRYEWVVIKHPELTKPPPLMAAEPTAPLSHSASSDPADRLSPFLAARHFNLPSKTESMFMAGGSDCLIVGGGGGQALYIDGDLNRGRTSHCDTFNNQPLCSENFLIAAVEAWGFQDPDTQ
Experiment: co-IP; Neuro2a cells transfected with FLAG tagged TBC1D24, lysed 48 hrs later in NETN buffer (20 mM Tris-HCl pH 8.0, 1 mM EDTA, 100 mM NaCl, 0.5% NP-40); anti-FLAG antibody or control rabbit IgG on Protein G Sepharose, overnight at 4°C; washed four times with NETN200 (200 mM NaCl); blots for Impdh, Ctps and FLAG

binding: no binding
Substance: cytidine-5'-triphosphate synthase (Ctps) (mouse (endogenous in Neuro2a))
